This passage reports binding results from publication PMC8970680.

Protein sequences, listed by entry. Tags and fused reporters are not part of them. Residues count along the entry.
UniProt G3V928, residues 20-4545: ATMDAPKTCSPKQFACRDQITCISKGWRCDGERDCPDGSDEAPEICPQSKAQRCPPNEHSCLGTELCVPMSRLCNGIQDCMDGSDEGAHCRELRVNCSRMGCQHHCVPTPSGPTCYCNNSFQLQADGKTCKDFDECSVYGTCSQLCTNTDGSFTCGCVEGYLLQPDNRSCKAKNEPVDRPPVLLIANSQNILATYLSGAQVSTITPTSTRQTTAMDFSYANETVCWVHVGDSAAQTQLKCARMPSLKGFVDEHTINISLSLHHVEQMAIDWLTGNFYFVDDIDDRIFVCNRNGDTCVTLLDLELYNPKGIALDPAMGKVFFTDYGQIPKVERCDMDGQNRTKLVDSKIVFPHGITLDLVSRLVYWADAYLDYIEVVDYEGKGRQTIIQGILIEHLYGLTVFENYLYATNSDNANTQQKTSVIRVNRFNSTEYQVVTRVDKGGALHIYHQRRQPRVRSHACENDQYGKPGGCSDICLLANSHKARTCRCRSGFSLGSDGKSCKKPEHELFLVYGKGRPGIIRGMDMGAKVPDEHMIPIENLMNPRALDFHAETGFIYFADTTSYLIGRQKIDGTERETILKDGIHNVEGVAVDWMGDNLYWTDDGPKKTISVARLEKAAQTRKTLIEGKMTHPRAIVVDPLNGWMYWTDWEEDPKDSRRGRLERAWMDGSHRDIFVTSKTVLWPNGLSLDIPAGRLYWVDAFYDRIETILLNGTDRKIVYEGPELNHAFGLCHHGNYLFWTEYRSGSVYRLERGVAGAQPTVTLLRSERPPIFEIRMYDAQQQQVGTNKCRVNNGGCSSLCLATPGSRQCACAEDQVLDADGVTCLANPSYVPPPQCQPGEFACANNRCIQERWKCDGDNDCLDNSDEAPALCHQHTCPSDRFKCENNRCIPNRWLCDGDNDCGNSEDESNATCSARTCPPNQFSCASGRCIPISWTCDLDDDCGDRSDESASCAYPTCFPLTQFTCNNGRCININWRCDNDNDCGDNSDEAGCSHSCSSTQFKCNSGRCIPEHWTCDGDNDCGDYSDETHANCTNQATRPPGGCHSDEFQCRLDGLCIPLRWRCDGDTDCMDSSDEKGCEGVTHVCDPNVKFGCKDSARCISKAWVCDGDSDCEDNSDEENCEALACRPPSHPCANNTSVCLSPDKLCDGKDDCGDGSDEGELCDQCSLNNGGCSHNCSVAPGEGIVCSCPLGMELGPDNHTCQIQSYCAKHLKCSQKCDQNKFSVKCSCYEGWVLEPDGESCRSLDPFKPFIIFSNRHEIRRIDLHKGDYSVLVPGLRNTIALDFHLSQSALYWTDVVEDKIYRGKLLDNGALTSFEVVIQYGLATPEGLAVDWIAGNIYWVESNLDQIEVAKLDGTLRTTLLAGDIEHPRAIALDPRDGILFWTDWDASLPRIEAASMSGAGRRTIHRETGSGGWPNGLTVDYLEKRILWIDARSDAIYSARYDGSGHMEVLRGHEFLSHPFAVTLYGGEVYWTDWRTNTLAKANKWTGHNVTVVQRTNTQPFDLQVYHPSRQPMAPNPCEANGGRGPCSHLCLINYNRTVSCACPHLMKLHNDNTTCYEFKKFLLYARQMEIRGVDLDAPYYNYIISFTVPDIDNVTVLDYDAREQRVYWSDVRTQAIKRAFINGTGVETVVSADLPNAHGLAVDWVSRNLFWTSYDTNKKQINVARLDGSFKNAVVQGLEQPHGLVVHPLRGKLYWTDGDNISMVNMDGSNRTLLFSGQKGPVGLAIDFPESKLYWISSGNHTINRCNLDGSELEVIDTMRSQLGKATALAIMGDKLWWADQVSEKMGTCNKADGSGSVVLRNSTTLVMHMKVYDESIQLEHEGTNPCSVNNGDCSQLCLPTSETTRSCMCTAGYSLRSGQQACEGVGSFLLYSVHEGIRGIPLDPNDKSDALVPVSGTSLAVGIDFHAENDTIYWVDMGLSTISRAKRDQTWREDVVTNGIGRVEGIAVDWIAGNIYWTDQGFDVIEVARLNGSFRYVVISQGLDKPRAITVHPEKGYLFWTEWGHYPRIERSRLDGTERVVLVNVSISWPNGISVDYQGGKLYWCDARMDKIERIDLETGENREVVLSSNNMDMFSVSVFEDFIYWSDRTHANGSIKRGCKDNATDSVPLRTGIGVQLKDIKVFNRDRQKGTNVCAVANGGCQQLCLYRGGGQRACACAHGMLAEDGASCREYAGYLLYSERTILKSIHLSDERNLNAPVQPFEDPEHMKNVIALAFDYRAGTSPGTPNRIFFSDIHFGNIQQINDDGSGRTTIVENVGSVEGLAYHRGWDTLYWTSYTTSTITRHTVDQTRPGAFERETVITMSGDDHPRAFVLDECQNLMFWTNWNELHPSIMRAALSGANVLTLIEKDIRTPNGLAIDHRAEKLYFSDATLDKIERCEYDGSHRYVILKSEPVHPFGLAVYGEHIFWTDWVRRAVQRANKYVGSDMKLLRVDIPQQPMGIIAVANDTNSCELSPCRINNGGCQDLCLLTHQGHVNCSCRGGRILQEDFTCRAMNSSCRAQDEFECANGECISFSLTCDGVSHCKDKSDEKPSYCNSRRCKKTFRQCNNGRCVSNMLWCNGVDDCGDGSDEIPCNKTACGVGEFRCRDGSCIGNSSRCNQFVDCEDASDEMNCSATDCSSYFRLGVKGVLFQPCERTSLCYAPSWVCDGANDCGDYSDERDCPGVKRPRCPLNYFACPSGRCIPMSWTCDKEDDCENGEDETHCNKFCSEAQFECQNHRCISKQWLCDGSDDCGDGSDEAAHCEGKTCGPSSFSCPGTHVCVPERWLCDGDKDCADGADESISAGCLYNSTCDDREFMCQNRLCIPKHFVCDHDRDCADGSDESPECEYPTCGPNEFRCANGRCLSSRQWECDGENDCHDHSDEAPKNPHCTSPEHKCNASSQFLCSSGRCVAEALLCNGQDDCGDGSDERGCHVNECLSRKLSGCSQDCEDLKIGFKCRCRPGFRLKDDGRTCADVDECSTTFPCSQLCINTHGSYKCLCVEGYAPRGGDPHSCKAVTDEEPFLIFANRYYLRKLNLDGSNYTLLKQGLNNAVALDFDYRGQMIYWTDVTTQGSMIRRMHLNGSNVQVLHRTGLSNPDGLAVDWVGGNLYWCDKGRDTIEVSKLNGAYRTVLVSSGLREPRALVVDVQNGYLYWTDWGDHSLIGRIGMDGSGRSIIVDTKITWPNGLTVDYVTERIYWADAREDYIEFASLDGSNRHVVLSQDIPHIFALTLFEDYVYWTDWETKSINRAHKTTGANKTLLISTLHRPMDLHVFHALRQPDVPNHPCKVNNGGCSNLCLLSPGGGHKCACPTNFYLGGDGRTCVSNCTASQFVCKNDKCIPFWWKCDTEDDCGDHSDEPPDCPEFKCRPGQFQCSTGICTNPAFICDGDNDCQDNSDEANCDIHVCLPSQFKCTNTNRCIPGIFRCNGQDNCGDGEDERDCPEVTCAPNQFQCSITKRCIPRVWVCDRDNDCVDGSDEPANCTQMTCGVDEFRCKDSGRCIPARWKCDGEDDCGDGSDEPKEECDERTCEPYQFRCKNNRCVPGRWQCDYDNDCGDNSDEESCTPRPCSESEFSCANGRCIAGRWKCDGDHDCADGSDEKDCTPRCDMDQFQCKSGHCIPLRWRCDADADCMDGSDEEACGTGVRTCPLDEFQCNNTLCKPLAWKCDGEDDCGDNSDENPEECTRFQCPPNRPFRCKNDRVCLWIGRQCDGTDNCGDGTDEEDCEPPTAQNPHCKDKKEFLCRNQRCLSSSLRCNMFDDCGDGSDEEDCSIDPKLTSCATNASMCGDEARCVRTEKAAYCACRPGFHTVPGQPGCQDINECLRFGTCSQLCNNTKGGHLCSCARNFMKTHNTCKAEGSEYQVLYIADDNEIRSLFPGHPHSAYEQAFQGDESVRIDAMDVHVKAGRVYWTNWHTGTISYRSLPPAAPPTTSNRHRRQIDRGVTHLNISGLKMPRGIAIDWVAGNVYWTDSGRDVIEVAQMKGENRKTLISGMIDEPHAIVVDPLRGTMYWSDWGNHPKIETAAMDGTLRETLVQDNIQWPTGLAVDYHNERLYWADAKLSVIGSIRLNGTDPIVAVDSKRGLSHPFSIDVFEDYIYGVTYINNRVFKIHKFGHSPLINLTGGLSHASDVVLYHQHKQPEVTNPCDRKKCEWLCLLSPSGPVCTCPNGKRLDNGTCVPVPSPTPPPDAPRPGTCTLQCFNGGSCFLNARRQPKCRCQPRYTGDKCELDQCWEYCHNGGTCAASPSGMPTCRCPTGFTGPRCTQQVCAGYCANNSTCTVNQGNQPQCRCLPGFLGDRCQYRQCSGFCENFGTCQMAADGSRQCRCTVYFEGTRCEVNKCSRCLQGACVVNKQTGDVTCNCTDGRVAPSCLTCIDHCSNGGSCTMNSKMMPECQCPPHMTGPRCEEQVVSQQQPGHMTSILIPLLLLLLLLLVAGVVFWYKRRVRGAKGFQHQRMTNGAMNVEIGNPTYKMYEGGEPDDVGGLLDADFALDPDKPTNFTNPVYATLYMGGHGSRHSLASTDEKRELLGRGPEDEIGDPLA

Assay [1] has as its target T1, pleiotrophin (rat (endogenous in primary rat differentiating immature OLs)) (UniProt P63090).
T1 sequence: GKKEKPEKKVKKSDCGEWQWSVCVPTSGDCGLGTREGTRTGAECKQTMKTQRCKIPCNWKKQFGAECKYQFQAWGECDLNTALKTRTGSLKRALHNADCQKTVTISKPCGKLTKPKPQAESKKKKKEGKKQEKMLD
The experiment in a line: co-IP; endogenous proteins in lysate of primary rat differentiating immature OLs; precipitated with PTN (2 ug antibody overnight, Protein A/G Plus agarose beads, 4°C); co-IP buffer 50 mM Tris-HCl pH 7.5, 150 mM NaCl, 1% Triton X-100, 1 mM EDTA; blots for the receptors.

The target in assay [2] is T2, pleiotrophin (rat (endogenous in primary rat differentiating immature OLs)), P63090.
T2 chain: T1 sequence
The assay is described as above. The following applies: remark: other sources report otherwise.

Results are given in words; binding and its absence hold for the method and conditions named. In cells and extracts the contact can be indirect. Some results given as binding are weak or reduced against the parent protein; the word gives no strength.

On to “protein tyrosine phosphatase receptor type Z1 (from UniProt Q62656 25-2316)”, for which the binding entry in assay [1] is on record as “binds”. The same measure, in the same setting: in the case of “LRP1 (from UniProt G3V928 20-4545) (receptor)” it was “no binding”.

B1: syndecan 3, P33671 45-442 (receptor)
chain: AQRWRNENFERPVDLEGSGDDDSFPDDELDDLYSGSGSGYFEQESGLETAMRFIPDIALAAPTAPAMLPTTVIQPVDTPFEELLSEHPGPEPVTSPPLVTEVTEVVEEPSQRATTISTTTSTTAATTTGAPTMATAPATAATTAPSTPAAPPATATTADIRTTGIQGLLPLPLTTAATAKATTPAVPSPPTTVTTLDTEAPTPRLVNTATSRPRALPRPVTTQEPEVAERSTLPLGTTAPGPTEVAQTPTPESLLTTTQDEPEVPVSGGPSGDFELQEETTQPDTANEVVAVEGAAAKPSPPLGTLPKGARPGLGLHDNAIDSGSSAAQLPQKSILERKEVLVAVIVGGVVGALFAAFLVTLLIYRMKKKDEGSYTLEEPKQASVTYQKPDKQEEFYA
Consider B1, for which the binding result in assay [2] is on record as “no binding”.
